Data as given in publication PMC10353892.
These are yes or no findings as the source states them, for the method shown. In cells and extracts the contact can be indirect. Some binding calls cover weakened binding; strength is not graded here. Sequences can lack the tags named with a protein.

T1: Myc-BAF (Drosophila) (UniProt Q9VLU0)
T1 sequence: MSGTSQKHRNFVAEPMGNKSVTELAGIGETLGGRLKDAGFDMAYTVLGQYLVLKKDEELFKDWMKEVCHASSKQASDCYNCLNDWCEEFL

T2: GFP-Ote 1–400 (Drosophila) (UniProt P20240)
T2 sequence: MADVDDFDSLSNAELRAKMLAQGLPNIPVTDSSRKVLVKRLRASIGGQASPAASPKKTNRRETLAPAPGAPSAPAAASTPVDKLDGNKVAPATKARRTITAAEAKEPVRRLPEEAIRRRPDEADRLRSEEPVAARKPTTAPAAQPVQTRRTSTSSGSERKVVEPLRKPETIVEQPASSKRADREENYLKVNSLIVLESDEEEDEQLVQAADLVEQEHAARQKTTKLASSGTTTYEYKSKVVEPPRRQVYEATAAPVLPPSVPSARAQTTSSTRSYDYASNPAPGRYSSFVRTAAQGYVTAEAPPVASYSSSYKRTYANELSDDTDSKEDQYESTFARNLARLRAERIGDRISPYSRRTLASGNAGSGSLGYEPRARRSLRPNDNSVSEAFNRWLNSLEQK

T3: GFP-Ote 1–70 (Drosophila) (UniProt P20240)
T3 sequence: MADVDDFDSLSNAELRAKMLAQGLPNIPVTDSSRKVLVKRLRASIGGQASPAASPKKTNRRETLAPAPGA

T4: GFP-Ote 42–400 (Drosophila) (UniProt P20240)
T4 sequence: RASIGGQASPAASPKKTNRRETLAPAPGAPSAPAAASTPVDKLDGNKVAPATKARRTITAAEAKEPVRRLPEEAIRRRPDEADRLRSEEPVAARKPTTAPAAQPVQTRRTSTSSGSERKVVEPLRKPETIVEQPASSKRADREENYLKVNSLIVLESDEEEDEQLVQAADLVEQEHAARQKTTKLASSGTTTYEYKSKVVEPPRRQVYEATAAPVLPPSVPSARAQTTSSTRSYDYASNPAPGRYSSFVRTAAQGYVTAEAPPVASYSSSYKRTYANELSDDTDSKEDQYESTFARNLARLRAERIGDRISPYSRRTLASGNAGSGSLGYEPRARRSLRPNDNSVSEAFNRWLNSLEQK

T5: GFP-Ote 42–400 with the phosphomimetic mutations (Drosophila) (UniProt P20240)
T5 sequence: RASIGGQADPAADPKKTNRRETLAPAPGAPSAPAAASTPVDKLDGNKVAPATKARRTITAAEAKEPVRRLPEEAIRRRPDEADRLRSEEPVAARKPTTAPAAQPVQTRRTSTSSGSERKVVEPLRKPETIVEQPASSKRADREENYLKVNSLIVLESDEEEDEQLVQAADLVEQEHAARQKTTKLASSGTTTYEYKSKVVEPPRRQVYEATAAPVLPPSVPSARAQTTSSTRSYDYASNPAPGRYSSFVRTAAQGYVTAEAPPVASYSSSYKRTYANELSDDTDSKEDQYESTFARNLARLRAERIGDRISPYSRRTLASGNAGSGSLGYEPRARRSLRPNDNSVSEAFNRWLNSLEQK

T6: GFP-Ote^WT (D-Mel cells) (Drosophila) (UniProt P20240)
T6 sequence: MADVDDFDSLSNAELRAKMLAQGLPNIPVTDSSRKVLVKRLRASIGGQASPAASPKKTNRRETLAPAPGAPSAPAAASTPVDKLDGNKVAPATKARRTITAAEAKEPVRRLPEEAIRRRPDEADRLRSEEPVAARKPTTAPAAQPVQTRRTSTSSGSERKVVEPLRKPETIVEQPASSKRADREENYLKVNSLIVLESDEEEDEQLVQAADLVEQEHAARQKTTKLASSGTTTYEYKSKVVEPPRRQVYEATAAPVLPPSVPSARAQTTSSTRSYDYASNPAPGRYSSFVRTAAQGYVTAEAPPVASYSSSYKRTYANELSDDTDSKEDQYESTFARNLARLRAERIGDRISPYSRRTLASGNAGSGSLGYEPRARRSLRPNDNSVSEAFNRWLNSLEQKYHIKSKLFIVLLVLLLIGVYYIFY


Assays:
[1] = biological target: T1, Myc-BAF (Drosophila); experiment: co-IP; as a2, after RNAi silencing of Tws
[2] = biological target: T1, Myc-BAF (Drosophila); experiment: co-IP; anti-Myc 9E10 and Protein G Dynabeads on lysates of transfected D-Mel cells; 50 mM Tris-HCl pH 7.5, 150 mM NaCl, 0.2% Triton X-100, 4°C; Western blot
[3] = biological target: T2, GFP-Ote 1–400 (Drosophila); experiment: co-IP; GFP-Trap agarose on lysates of transfected D-Mel cells; 20 mM Tris-HCl pH 7.5, 150 mM NaCl, 2 mM MgCl2, 0.5% NP40 Substitute, 4°C; Western blot
[4] = biological target: T3, GFP-Ote 1–70 (Drosophila); experiment: as above
[5] = biological target: T4, GFP-Ote 42–400 (Drosophila); experiment: as above
[6] = biological target: T5, GFP-Ote 42–400 with the phosphomimetic mutations (Drosophila); experiment: as above
[7] = biological target: T6, GFP-Ote^WT (D-Mel cells) (Drosophila); experiment: as above

Binder | binding [1] | binding [2] | binding [3] | binding [4] | binding [5] | binding [6] | binding [7]
GFP-Ote^WT (D-Mel cells) (protein, UniProt P20240 1-424) MADVDDFDSLSNAELRAKMLAQGLPNIPVTDSSRKVLVKRLRASIGGQASPAASPKKTNRRETLAPAPGAPSAPAAASTPVDKLDGNKVAPATKARRTITAAEAKEPVRRLPEEAIRRRPDEADRLRSEEPVAARKPTTAPAAQPVQTRRTSTSSGSERKVVEPLRKPETIVEQPASSKRADREENYLKVNSLIVLESDEEEDEQLVQAADLVEQEHAARQKTTKLASSGTTTYEYKSKVVEPPRRQVYEATAAPVLPPSVPSARAQTTSSTRSYDYASNPAPGRYSSFVRTAAQGYVTAEAPPVASYSSSYKRTYANELSDDTDSKEDQYESTFARNLARLRAERIGDRISPYSRRTLASGNAGSGSLGYEPRARRSLRPNDNSVSEAFNRWLNSLEQKYHIKSKLFIVLLVLLLIGVYYIFY | no binding (condition: after RNAi silencing of Tws) | binds | – | – | – | – | –
GFP-Ote^AA (D-Mel cells) (protein, UniProt P20240 1-424) MADVDDFDSLSNAELRAKMLAQGLPNIPVTDSSRKVLVKRLRASIGGQAAPAAAPKKTNRRETLAPAPGAPSAPAAASTPVDKLDGNKVAPATKARRTITAAEAKEPVRRLPEEAIRRRPDEADRLRSEEPVAARKPTTAPAAQPVQTRRTSTSSGSERKVVEPLRKPETIVEQPASSKRADREENYLKVNSLIVLESDEEEDEQLVQAADLVEQEHAARQKTTKLASSGTTTYEYKSKVVEPPRRQVYEATAAPVLPPSVPSARAQTTSSTRSYDYASNPAPGRYSSFVRTAAQGYVTAEAPPVASYSSSYKRTYANELSDDTDSKEDQYESTFARNLARLRAERIGDRISPYSRRTLASGNAGSGSLGYEPRARRSLRPNDNSVSEAFNRWLNSLEQKYHIKSKLFIVLLVLLLIGVYYIFY | no binding (condition: after RNAi silencing of Tws) | binds | – | – | – | – | –
Myc-BAF (protein, UniProt Q9VLU0 1-90) MSGTSQKHRNFVAEPMGNKSVTELAGIGETLGGRLKDAGFDMAYTVLGQYLVLKKDEELFKDWMKEVCHASSKQASDCYNCLNDWCEEFL | – | – | binds | binds | – | – | –
Myc-Ote (protein, UniProt P20240 1-424) MADVDDFDSLSNAELRAKMLAQGLPNIPVTDSSRKVLVKRLRASIGGQASPAASPKKTNRRETLAPAPGAPSAPAAASTPVDKLDGNKVAPATKARRTITAAEAKEPVRRLPEEAIRRRPDEADRLRSEEPVAARKPTTAPAAQPVQTRRTSTSSGSERKVVEPLRKPETIVEQPASSKRADREENYLKVNSLIVLESDEEEDEQLVQAADLVEQEHAARQKTTKLASSGTTTYEYKSKVVEPPRRQVYEATAAPVLPPSVPSARAQTTSSTRSYDYASNPAPGRYSSFVRTAAQGYVTAEAPPVASYSSSYKRTYANELSDDTDSKEDQYESTFARNLARLRAERIGDRISPYSRRTLASGNAGSGSLGYEPRARRSLRPNDNSVSEAFNRWLNSLEQKYHIKSKLFIVLLVLLLIGVYYIFY | – | – | binds | binds | binds | binds | binds
